Residue numbers refer to the chain shown, from its start. This is one part of the list. For some assays here: At the low end of the ranking, values are background and their order means little.
Key:
Conditions in all cases: yeast three-hybrid, YBZ-1, SC-Leu-His + 0.5 mM 3-AT, 4 days
[1] = target: T1, PUM1 PUF domain R2-AFS N899A + Y900F + Q903S (UniProt Q14671)
T1 sequence: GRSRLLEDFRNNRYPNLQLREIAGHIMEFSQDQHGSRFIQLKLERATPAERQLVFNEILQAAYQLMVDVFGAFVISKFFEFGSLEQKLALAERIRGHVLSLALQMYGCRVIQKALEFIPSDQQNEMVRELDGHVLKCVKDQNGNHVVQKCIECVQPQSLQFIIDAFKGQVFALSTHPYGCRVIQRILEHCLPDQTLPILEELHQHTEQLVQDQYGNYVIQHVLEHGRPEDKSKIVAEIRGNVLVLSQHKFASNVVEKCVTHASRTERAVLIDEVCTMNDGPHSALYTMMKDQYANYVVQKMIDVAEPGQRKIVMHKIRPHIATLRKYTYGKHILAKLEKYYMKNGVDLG

[2] = target: T2, PUM1 PUF domain R2-AFW N899A + Y900F + Q903W (UniProt Q14671)
T2 sequence: T1 sequence with S76W

[3] = target: T3, PUM1 PUF domain R2-ARP N899A + Y900R + Q903P (UniProt Q14671)
T3 sequence: T1 sequence with F73R, S76P

[4] = target: T4, PUM1 PUF domain R2-AVA N899A + Y900V + Q903A (UniProt Q14671)
T4 sequence: T1 sequence with F73V, S76A

[5] = target: T5, PUM1 PUF domain R2-AWH N899A + Y900W + Q903H (Homo sapiens) (UniProt Q14671)
T5 sequence: T1 sequence with F73W, S76H

[6] = target: T6, PUM1 PUF domain R2-AWW N899A + Y900W + Q903W (UniProt Q14671)
T6 sequence: T1 sequence with F73W, S76W

[7] = target: T7, PUM1 PUF domain R2-AWY N899A + Y900W + Q903Y (UniProt Q14671)
T7 sequence: T1 sequence with F73W, S76Y

[8] = target: T8, PUM1 PUF domain R2-AYW N899A + Q903W (UniProt Q14671)
T8 sequence: T1 sequence with F73Y, S76W

[9] = target: T9, PUM1 PUF domain R2-CFP N899C + Y900F + Q903P (UniProt Q14671)
T9 sequence: T1 sequence with A72C, S76P

[10] = target: T10, PUM1 PUF domain R2-CGI N899C + Y900G + Q903I (UniProt Q14671)
T10 sequence: T1 sequence with A72C, F73G, S76I

[11] = target: T11, PUM1 PUF domain R2-CYP N899C + Q903P (UniProt Q14671)
T11 sequence: T1 sequence with A72C, F73Y, S76P

[12] = target: T12, PUM1 PUF domain R2-DRQ N899D + Y900R (UniProt Q14671)
T12 sequence: T1 sequence with A72D, F73R, S76Q

[13] = target: T13, PUM1 PUF domain R2-DWC N899D + Y900W + Q903C (UniProt Q14671)
T13 sequence: T1 sequence with A72D, F73W, S76C

[14] = target: T14, PUM1 PUF domain R2-DWE N899D + Y900W + Q903E (UniProt Q14671)
T14 sequence: T1 sequence with A72D, F73W, S76E

[15] = target: T15, PUM1 PUF domain R2-DWI N899D + Y900W + Q903I (Homo sapiens) (UniProt Q14671)
T15 sequence: T1 sequence with A72D, F73W, S76I

[16] = target: T16, PUM1 PUF domain R2-DWL N899D + Y900W + Q903L (UniProt Q14671)
T16 sequence: T1 sequence with A72D, F73W, S76L

[17] = target: T17, PUM1 PUF domain R2-EPW N899E + Y900P + Q903W (UniProt Q14671)
T17 sequence: T1 sequence with A72E, F73P, S76W

[18] = target: T18, PUM1 PUF domain R2-EWA N899E + Y900W + Q903A (UniProt Q14671)
T18 sequence: T1 sequence with A72E, F73W, S76A

[19] = target: T19, PUM1 PUF domain R2-EWD N899E + Y900W + Q903D (UniProt Q14671)
T19 sequence: T1 sequence with A72E, F73W, S76D

[20] = target: T20, PUM1 PUF domain R2-GFD N899G + Y900F + Q903D (UniProt Q14671)
T20 sequence: T1 sequence with A72G, S76D

[21] = target: T21, PUM1 PUF domain R2-GWD N899G + Y900W + Q903D (UniProt Q14671)
T21 sequence: T1 sequence with A72G, F73W, S76D

[22] = target: T22, PUM1 PUF domain R2-GWF N899G + Y900W + Q903F (UniProt Q14671)
T22 sequence: T1 sequence with A72G, F73W, S76F

[23] = target: T23, PUM1 PUF domain R2-GWG N899G + Y900W + Q903G (UniProt Q14671)
T23 sequence: T1 sequence with A72G, F73W, S76G

[24] = target: T24, PUM1 PUF domain R2-GWW N899G + Y900W + Q903W (UniProt Q14671)
T24 sequence: T1 sequence with A72G, F73W, S76W

[25] = target: T25, PUM1 PUF domain R2-GWY N899G + Y900W + Q903Y (UniProt Q14671)
T25 sequence: T1 sequence with A72G, F73W, S76Y

[26] = target: T26, PUM1 PUF domain R2-IFA N899I + Y900F + Q903A (Homo sapiens) (UniProt Q14671)
T26 sequence: T1 sequence with A72I, S76A

[27] = target: T27, PUM1 PUF domain R2-IVF N899I + Y900V + Q903F (UniProt Q14671)
T27 sequence: T1 sequence with A72I, F73V, S76F

[28] = target: T28, PUM1 PUF domain R2-KCA N899K + Y900C + Q903A (UniProt Q14671)
T28 sequence: T1 sequence with A72K, F73C, S76A

[29] = target: T29, PUM1 PUF domain R2-KFG N899K + Y900F + Q903G (UniProt Q14671)
T29 sequence: T1 sequence with A72K, S76G

[30] = target: T30, PUM1 PUF domain R2-KIG N899K + Y900I + Q903G (UniProt Q14671)
T30 sequence: T1 sequence with A72K, F73I, S76G

[31] = target: T31, PUM1 PUF domain R2-KLQ N899K + Y900L (UniProt Q14671)
T31 sequence: T1 sequence with A72K, F73L, S76Q

[32] = target: T32, PUM1 PUF domain R2-KLS N899K + Y900L + Q903S (UniProt Q14671)
T32 sequence: T1 sequence with A72K, F73L

[33] = target: T33, PUM1 PUF domain R2-KLV N899K + Y900L + Q903V (UniProt Q14671)
T33 sequence: T1 sequence with A72K, F73L, S76V

[34] = target: T34, PUM1 PUF domain R2-KRA N899K + Y900R + Q903A (UniProt Q14671)
T34 sequence: T1 sequence with A72K, F73R, S76A

[35] = target: T35, PUM1 PUF domain R2-KRG N899K + Y900R + Q903G (Homo sapiens) (UniProt Q14671)
T35 sequence: T1 sequence with A72K, F73R, S76G

[36] = target: T36, PUM1 PUF domain R2-KVA N899K + Y900V + Q903A (UniProt Q14671)
T36 sequence: T1 sequence with A72K, F73V, S76A

[37] = target: T37, PUM1 PUF domain R2-LFA N899L + Y900F + Q903A (UniProt Q14671)
T37 sequence: T1 sequence with A72L, S76A

[38] = target: T38, PUM1 PUF domain R2-LFC N899L + Y900F + Q903C (UniProt Q14671)
T38 sequence: T1 sequence with A72L, S76C

[39] = target: T39, PUM1 PUF domain R2-LFG N899L + Y900F + Q903G (UniProt Q14671)
T39 sequence: T1 sequence with A72L, S76G

[40] = target: T40, PUM1 PUF domain R2-LFI N899L + Y900F + Q903I (UniProt Q14671)
T40 sequence: T1 sequence with A72L, S76I

[41] = target: T41, PUM1 PUF domain R2-LFL N899L + Y900F + Q903L (UniProt Q14671)
T41 sequence: T1 sequence with A72L, S76L

[42] = target: T42, PUM1 PUF domain R2-LFS N899L + Y900F + Q903S (UniProt Q14671)
T42 sequence: T1 sequence with A72L

[43] = target: T43, PUM1 PUF domain R2-LFV N899L + Y900F + Q903V (Homo sapiens) (UniProt Q14671)
T43 sequence: T1 sequence with A72L, S76V

[44] = target: T44, PUM1 PUF domain R2-LHR N899L + Y900H + Q903R (Homo sapiens) (UniProt Q14671)
T44 sequence: T1 sequence with A72L, F73H, S76R

In the case of “GGCUAGAACUAGUGGAUCCCCCGGCGCCCGGCGGCUCGAGCCCGGGUAAGUGUAAACAGUCUGCAUGCCGCCGGGCGCCAUGCCUGCAGGUCGACUCUAGAAAACAUG”, the binding signal (log2 enrichment (interaction score)) [1] is reported as < -6.58, the binding signal (log2 enrichment (interaction score)) [2] is reported as < -8.45 and the binding signal (log2 enrichment (interaction score)) [3] is reported as < -8.19. The binding signal (log2 enrichment (interaction score)) [4] was < -7.55, the binding signal (log2 enrichment (interaction score)) [5] was -1.24 and the binding signal (log2 enrichment (interaction score)) [6] was < -7.76. For the same sequence, the binding signal (log2 enrichment (interaction score)) [7] was < -5.47, the binding signal (log2 enrichment (interaction score)) [8] was < -6.67 and the binding signal (log2 enrichment (interaction score)) [9] was < -7.25. The binding signal (log2 enrichment (interaction score)) [10] was < -7.48, the binding signal (log2 enrichment (interaction score)) [11] was < -6.4 and the binding signal (log2 enrichment (interaction score)) [12] was < -6.1. The binding signal (log2 enrichment (interaction score)) [13] was < -5.88, the binding signal (log2 enrichment (interaction score)) [14] was < -7.06 and the binding signal (log2 enrichment (interaction score)) [15] was -1.03. For the same sequence, the binding signal (log2 enrichment (interaction score)) [16] was < -8.25, the binding signal (log2 enrichment (interaction score)) [17] was < -7.14 and the binding signal (log2 enrichment (interaction score)) [18] was < -6.14. The binding signal (log2 enrichment (interaction score)) [19] was < -6.34, the binding signal (log2 enrichment (interaction score)) [20] was < -7.94 and the binding signal (log2 enrichment (interaction score)) [21] was < -7.14. The binding signal (log2 enrichment (interaction score)) [22] was < -8.32, the binding signal (log2 enrichment (interaction score)) [23] was < -8.23 and the binding signal (log2 enrichment (interaction score)) [24] was < -9.24. The binding signal (log2 enrichment (interaction score)) [25] was < -8.31, the binding signal (log2 enrichment (interaction score)) [26] was < -6.04 and the binding signal (log2 enrichment (interaction score)) [27] was < -6.82. For the same sequence, the binding signal (log2 enrichment (interaction score)) [28] was < -6.62, the binding signal (log2 enrichment (interaction score)) [29] was < -7.01 and the binding signal (log2 enrichment (interaction score)) [30] was < -6.62. For the same sequence, the binding signal (log2 enrichment (interaction score)) [31] was < -6.8, the binding signal (log2 enrichment (interaction score)) [32] was < -10.7 and the binding signal (log2 enrichment (interaction score)) [33] was < -7.72. For the same sequence, the binding signal (log2 enrichment (interaction score)) [34] was < -6.78, the binding signal (log2 enrichment (interaction score)) [35] was -0.56 and the binding signal (log2 enrichment (interaction score)) [36] was < -5.48. For the same sequence, the binding signal (log2 enrichment (interaction score)) [37] was < -9.04, the binding signal (log2 enrichment (interaction score)) [38] was < -7.2 and the binding signal (log2 enrichment (interaction score)) [39] was < -10.4. The binding signal (log2 enrichment (interaction score)) [40] was < -6.44, the binding signal (log2 enrichment (interaction score)) [41] was < -8.54 and the binding signal (log2 enrichment (interaction score)) [42] was < -9.88. The binding signal (log2 enrichment (interaction score)) [43] was -5.27 and the binding signal (log2 enrichment (interaction score)) [44] was < -6.02.

Reference: article PMC8384837
